Among the data in US20130053541A1, “METHODS FOR DISCOVERING MOLECULES THAT BIND TO PROTEINS” (LYNNTECH, INC., priority 2011, published 2013) are binding values, retold here.

T1: native human ESRRG protein (Estrogen-receptor related receptor gamma) (human) (UniProt P62508)
T1 sequence (looked up): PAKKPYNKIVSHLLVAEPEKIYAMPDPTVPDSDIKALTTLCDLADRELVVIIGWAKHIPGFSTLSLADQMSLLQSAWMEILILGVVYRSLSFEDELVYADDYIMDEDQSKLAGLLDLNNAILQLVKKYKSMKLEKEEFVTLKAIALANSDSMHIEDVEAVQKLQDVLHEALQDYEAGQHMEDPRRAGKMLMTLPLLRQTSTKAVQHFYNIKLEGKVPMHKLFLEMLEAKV

Results are given in words; binding and its absence hold for the method and conditions named. Some results given as binding are weak or reduced against the parent protein; the word gives no strength.

The target of the assay is T1, native human ESRRG protein (Estrogen-receptor related receptor gamma) (human). Kind of assay: TR-FRET ESRRG-ligand displacement assay, PGC1α as displaced co-activator.
In the case of HDNMYLNE (N-terminal acetyl group), the binding entry is recorded as “binds”.
The value for NSLLKHLL (N-terminal acetyl group) was “binds”; that for FYNMYLLN (N-terminal acetyl group) was “binds”.
